From PubChem BioAssay AID493014 (National Center for Advancing Translational Sciences (NCATS), 2011)
The list shows a part of the results. Shown are side measurements of this screen, not its main read-out; they come without a call. Compounds called inactive in the main read-out are mostly missing here. Words in brackets tell the shape of the fitted curve; partial curves, single points and poor fits give uncertain potencies.

Assay: qHTS Assay to Find Inhibitors of Chronic Active B-Cell Receptor Signaling
Conditions: ABC-DLBCL IkBa-CBG/CBR reporter, luminescence ratio (green luciferase fused to IkBa over red control in TMD8 lymphoma cells), 4 h
Outline: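 Cell line TMD8 (human ABC DLBCL), stably expressing tet-inducible CBG68-IkBa fusion and CBR; IMDM/0.5% FBS; cpd up to 46 uM; dox induction, 4 h, 37C/5% CO2; dual luminescence; green/red ratio; MG132 control.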

[1] = measured here: CBR red luminescence, cell number

Row | SMILES | AC50 [1] | AC50 (measured here: IkBa-CBG green luminescence)
1 | CCCCOC(=O)c1ccc(NC(=O)COC(=O)C2CSC3(C)CCC(=O)N23)cc1 (stereo not drawn) | 0.00461 µM [rising, full curve, poor fit] | –
2 | O=C(O)c1ccccc1NC(=O)c1ccccc1Nc1ccccc1 | 2.82 µM [falling, partial curve] | –
3 | Cc1ccccc1NC(=O)c1ccc(Cl)c(NC(=O)c2cccnc2)c1 | 10 µM [falling, partial curve, poor fit] | –
4 | COC(=O)c1ccccc1NC(=O)C(=O)NCC1CCCO1 (stereo not drawn) | 2.06 µM [falling, full curve] | –
5 | O=C(CCNC(=O)c1ccccc1Cl)Nc1nc(-c2ccc3ccccc3c2)cs1 | 18.4 µM [falling, partial curve] | –
6 | CCOC(=O)c1nn(-c2ccc3c(c2)CCN3C(C)=O)cc1O | 11.2 µM [rising, partial curve, poor fit] | –
7 | CC(=O)c1c(C)[nH]c(C(=O)COC(=O)CCSc2ccccc2)c1C | 20.6 µM [rising, partial curve, poor fit] | –
8 | COc1ccc(CNC(=O)C(=O)c2cn(CC(=O)N3CCCC3)c3ccccc23)cc1 | 1 µM [falling, full curve] | –
9 | Cc1ccc(OCCCC(=O)Nc2ccc(S(=O)(=O)Nc3cc(C)nc(C)n3)cc2)cc1 | 17.8 µM [rising, partial curve, poor fit] | –
10 | COc1ccc(-c2csc(NC(=O)Cn3nc(C)cc3C)n2)cc1 | 35.5 µM [falling, single point] | –
11 | COc1cccc2[nH]c3c(N4CCC(C)CC4)ncnc3c12 | 2.82 µM [falling, full curve] | –
12 | CC1(C)C2CCC1(C)C(NC(=O)/C=C/c1ccccc1)C2 (stereo not drawn) | 4.47 µM [rising, single point] | –
13 | COCCN(Cc1cc2cc3c(cc2nc1Cl)OCO3)C(C)=O | 0.891 µM [falling, full curve] | –
14 | CC(C)c1ccc(OCC(=O)NNC(=S)NC(=O)C2CC2)cc1 | 15.8 µM [rising, single point] | –
15 | NC(=O)NC(CC(=O)NCCc1ccc(S(N)(=O)=O)cc1)c1ccc(Cl)cc1 (stereo not drawn) | 6.31 µM [falling, single point] | –
16 | CCOC(=O)N1CCC(=NNc2nc3ccccc3s2)CC1 | 35.5 µM [falling, single point] | –
17 | N#Cc1nc(-c2ccco2)oc1N1CCN(c2cccc(Cl)c2)CC1 | 0.164 µM [rising, full curve, poor fit] | –
18 | Cc1ccc(SCC(=O)OCC(=O)N(C)CC(=O)Nc2ccc(F)cc2)cc1C | 5.8 µM [falling, full curve] | –
19 | O=C(Nc1ccccc1)/C(=C\c1ccco1)NC(=O)c1ccco1 | 35.5 µM [falling, single point] | –
20 | O=C(CN1C(=O)C2CC=CCC2C1=O)N1CCN(c2ccc([N+](=O)[O-])cc2)CC1 (stereo not drawn) | 5.62 µM [rising, full curve, poor fit] | –
21 | Cc1cccc(-c2nc(C#N)c(NCC3CCCO3)o2)c1 (stereo not drawn) | 4.47 µM [rising, single point] | –

Gathered by group: the entries above with a cyano group.
Row | SMILES | AC50 [1] | AC50 (measured here: IkBa-CBG green luminescence)
17 | N#Cc1nc(-c2ccco2)oc1N1CCN(c2cccc(Cl)c2)CC1 | 0.164 µM [rising, full curve, poor fit] | –
21 | Cc1cccc(-c2nc(C#N)c(NCC3CCCO3)o2)c1 (stereo not drawn) | 4.47 µM [rising, single point] | –

Next entries follow.

Row | SMILES | AC50 [1] | AC50 (measured here: IkBa-CBG green luminescence)
22 | CCOCCCNC(=O)c1cc(Nc2ccc(OC)cc2OC)nc2ccccc12 | 11.2 µM [falling, partial curve, poor fit] | –
23 | CCC(C)NC(=O)COC(=O)c1ccccc1OCC(=O)Nc1ccc(Br)cc1 (stereo not drawn) | 20.6 µM [falling, single point] | –
24 | Cc1c(C(=O)Nc2ccccc2)csc1-c1ccccc1 | 14.6 µM [rising, partial curve, poor fit] | –
25 | CCCCNC(=O)CSc1nc(CCC)nc2ccccc12 | 0.794 µM [falling, full curve, poor fit] | –
26 | COc1ccc(NC(=O)CSc2cc(C(=O)c3nccn3C)c3ccccc3n2)cc1 | 14.1 µM [falling, single point] | –
27 | CCN1C(=O)S/C(=C/c2c(OCc3ccc(C(=O)O)cc3)ccc3ccccc23)C1=O | 23.1 µM [falling, single point] | –
28 | CCCCn1c(NC(C)=O)c(C#N)c2nc3ccccc3nc21 | 35.5 µM [falling, single point] | –
29 | O=C(O)c1cc(O)ccc1NC(=O)c1cccc2ccccc12 | 1.41 µM [falling, full curve] | –
30 | Cc1cccc(CN2CCCC(C(=O)Nc3ccc(-c4cscn4)cc3)C2)c1 (stereo not drawn) | 11.2 µM [falling, partial curve] | –
31 | COc1ccc(CN(CCc2ccccc2)Cc2ccccc2)cc1OC | 14.1 µM [rising, single point] | –
32 | O=C(Nc1ccc(NC(=O)c2ccco2)nc1)c1ccccn1 | 10 µM [falling, partial curve, poor fit] | –
33 | COc1ccc(C(=O)NCCn2cc(SCC(=O)NCc3ccco3)c3ccccc32)cc1 | 35.5 µM [falling, single point] | –
34 | COc1ccccc1CNC(=O)C1CCC(CNS(=O)(=O)c2ccc(F)cc2)CC1 (stereo not drawn) | 15.8 µM [falling, single point] | –
35 | CCOC(=O)c1c(-c2ccc(-c3ccccc3)cc2)csc1NC(=O)C1C2CCC(O2)C1C(=O)O (stereo not drawn) | 15.8 µM [falling, single point] | 17.8 µM [rising, partial curve, poor fit]
36 | Cc1nn(C)c(C(=O)NNC(=S)NCc2ccccc2)c1Cl | 3.55 µM [rising, partial curve, poor fit] | –
37 | COc1ccc2ccc(=O)oc2c1CC=C(C)C | 23.1 µM [rising, partial curve, poor fit] | –
38 | Cc1ccc(-c2ccc(/C=N/n3cnnc3)o2)cc1Cl | 29.1 µM [rising, single point] | –
39 | COc1ccc(-c2nc(NC(=O)CSCCO)sc2C)cc1 | 2.82 µM [falling, full curve] | –
40 | CCN(CC)c1ccc2c(C)cc(=O)oc2c1 | 23.1 µM [rising, single point] | –
41 | COc1ccc(S(=O)(=O)N2CCCC(N(C)CCc3ccccc3)C2)cc1OC (stereo not drawn) | 12.6 µM [rising, single point] | –
42 | O=C(NC1CCCCCC1)C(=O)NC1CCCC1 | 6.51 µM [falling, single point] | –
